Test results reported in the supplement of paper PMC6411743.
± gives the standard deviation of the averaged measurements. The list shows a part of the results.

Assays:
Assay in all cases: NP40-soluble protein abundance relative to vehicle (solubility fold change) (ratio); higher = more soluble protein in presence of GTP
ISOC1 = target: T1, ISOC1 (UniProt Q96CN7)
T1 sequence (whole entry): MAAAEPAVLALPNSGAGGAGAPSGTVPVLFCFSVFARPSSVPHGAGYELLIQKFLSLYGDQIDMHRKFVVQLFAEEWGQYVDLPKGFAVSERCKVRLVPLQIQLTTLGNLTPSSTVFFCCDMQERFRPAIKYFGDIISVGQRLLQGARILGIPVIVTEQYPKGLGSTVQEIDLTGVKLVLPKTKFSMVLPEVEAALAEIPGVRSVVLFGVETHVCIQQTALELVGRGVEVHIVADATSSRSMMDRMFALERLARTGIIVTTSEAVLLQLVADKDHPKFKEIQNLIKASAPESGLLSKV
Summary of the method: (§1)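 Each value is a fold change relative to the detergent-processed vehicle, calculated per replicate from vsn-normalised intensities. Jurkat crude lysate received eight concentrations (0.1 to 10 mM) for 10 min at room temperature and 3 min at 37 °C, then was solubilised in 0.8% NP40 with benzonase (60 min, 4 °C). The ultracentrifuged supernatant was TMT-labelled and run by LC-MS/MS in three independent experiments.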

NSMCE1 = target: T2, NSMCE1 (UniProt Q8WV22)
T2 sequence (whole entry): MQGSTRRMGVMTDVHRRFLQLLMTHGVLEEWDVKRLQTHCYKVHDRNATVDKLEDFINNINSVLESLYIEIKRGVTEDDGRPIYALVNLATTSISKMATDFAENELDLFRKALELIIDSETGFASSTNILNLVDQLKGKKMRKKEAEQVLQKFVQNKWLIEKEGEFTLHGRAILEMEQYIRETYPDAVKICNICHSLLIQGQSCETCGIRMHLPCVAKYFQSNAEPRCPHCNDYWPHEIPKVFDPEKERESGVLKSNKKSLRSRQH
Summary of the method: as §1

PINX1 = target: T3, PINX1 (UniProt Q96BK5)
T3 sequence (whole entry): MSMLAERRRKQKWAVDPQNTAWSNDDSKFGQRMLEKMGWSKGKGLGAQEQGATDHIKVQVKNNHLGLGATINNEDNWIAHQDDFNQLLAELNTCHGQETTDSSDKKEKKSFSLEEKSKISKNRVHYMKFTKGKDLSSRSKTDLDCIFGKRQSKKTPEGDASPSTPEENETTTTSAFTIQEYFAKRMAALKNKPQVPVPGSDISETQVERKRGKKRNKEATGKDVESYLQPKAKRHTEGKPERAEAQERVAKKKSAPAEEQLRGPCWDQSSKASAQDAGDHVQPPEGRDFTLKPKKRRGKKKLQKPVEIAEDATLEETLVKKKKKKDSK
Summary of the method: as §1

[1] = target: T4, Q96I63 and related entries (UniProt Q96TA2)
T4 sequence (whole entry): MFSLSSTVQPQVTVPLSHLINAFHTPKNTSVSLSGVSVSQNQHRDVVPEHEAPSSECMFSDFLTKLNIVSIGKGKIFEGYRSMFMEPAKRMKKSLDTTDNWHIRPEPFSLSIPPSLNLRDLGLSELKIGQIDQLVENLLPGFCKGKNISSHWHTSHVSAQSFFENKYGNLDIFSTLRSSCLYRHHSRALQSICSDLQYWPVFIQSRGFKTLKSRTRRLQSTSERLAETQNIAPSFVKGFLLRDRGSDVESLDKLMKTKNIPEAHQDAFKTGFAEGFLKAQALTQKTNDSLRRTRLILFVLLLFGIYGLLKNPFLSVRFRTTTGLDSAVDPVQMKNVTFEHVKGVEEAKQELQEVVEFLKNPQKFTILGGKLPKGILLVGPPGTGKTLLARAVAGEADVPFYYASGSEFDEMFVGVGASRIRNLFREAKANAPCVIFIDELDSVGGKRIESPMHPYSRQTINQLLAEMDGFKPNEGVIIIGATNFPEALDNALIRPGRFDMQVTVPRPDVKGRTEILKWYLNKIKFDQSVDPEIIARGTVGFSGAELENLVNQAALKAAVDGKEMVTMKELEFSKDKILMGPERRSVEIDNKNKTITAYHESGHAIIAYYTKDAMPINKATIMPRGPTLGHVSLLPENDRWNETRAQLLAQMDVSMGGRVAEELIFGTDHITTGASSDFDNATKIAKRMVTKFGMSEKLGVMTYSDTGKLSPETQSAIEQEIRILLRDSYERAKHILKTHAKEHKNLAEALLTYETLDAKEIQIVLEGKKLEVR
Summary of the method: as §1

RBM17 = target: T5, RBM17 (UniProt Q96I25)
T5 sequence (whole entry): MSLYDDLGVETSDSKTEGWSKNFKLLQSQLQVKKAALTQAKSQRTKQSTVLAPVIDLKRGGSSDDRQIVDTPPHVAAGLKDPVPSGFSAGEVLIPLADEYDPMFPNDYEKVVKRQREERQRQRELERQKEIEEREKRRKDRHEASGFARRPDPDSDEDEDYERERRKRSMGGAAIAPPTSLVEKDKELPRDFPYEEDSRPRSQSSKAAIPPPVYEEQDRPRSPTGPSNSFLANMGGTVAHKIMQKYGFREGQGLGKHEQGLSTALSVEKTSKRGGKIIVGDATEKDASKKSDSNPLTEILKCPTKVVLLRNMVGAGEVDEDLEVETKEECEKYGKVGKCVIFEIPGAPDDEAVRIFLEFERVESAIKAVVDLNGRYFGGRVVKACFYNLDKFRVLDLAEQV
Summary of the method: as §1

RNF25 = target: T6, RNF25 (UniProt Q96BH1)
T6 sequence (whole entry): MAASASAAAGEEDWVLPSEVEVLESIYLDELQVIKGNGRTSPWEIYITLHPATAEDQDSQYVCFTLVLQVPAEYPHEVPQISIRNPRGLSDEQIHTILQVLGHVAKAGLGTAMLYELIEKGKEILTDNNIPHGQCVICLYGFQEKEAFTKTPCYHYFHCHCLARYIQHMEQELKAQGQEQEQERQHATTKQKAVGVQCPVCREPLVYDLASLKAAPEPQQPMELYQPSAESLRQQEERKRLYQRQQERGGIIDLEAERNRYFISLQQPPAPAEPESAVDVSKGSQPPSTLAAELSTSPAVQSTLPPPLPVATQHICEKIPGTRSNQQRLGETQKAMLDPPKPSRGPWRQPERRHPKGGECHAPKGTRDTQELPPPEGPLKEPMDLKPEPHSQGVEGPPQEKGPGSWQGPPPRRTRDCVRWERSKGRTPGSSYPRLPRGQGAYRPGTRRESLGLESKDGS
Summary of the method: as §1

## Nc1nc2c(ncn2[C@@H]2O[C@H](COP(=O)(O)OP(=O)(O)OP(=O)(O)O)[C@@H](O)[C@H]2O)c(=O)[nH]1 [guanosine triphosphate]
ISOC1; concentration: 0.1mM
  NP40-soluble protein abundance: 1.02 ± 0.12
ISOC1; concentration: 0.5mM
  NP40-soluble protein abundance: 0.985 ± 0.034
ISOC1; concentration: 1mM
  NP40-soluble protein abundance: 0.905 ± 0.058
ISOC1; concentration: 2mM
  NP40-soluble protein abundance: 0.8922 ± 0.0053
ISOC1; concentration: 4mM
  NP40-soluble protein abundance: 0.886 ± 0.039
ISOC1; concentration: 6mM
  NP40-soluble protein abundance: 0.8796 ± 0.0087
ISOC1; concentration: 8mM
  NP40-soluble protein abundance: 0.841 ± 0.089
ISOC1; concentration: 10mM
  NP40-soluble protein abundance: 0.823 ± 0.025
NSMCE1; concentration: 0.1mM
  NP40-soluble protein abundance: 0.998 ± 0.029
NSMCE1; concentration: 0.5mM
  NP40-soluble protein abundance: 0.96 ± 0.048
NSMCE1; concentration: 1mM
  NP40-soluble protein abundance: 1.01 ± 0.039
NSMCE1; concentration: 2mM
  NP40-soluble protein abundance: 0.996 ± 0.04
NSMCE1; concentration: 4mM
  NP40-soluble protein abundance: 1.011 ± 0.0064
NSMCE1; concentration: 6mM
  NP40-soluble protein abundance: 1 ± 0.029
NSMCE1; concentration: 8mM
  NP40-soluble protein abundance: 1 ± 0.029
NSMCE1; concentration: 10mM
  NP40-soluble protein abundance: 0.989 ± 0.025
PINX1; concentration: 0.1mM
  NP40-soluble protein abundance: 1.22 ± 0.065
PINX1; concentration: 0.5mM
  NP40-soluble protein abundance: 1.28 ± 0.074
PINX1; concentration: 1mM
  NP40-soluble protein abundance: 1.45 ± 0.033
PINX1; concentration: 2mM
  NP40-soluble protein abundance: 1.64 ± 0.093
PINX1; concentration: 4mM
  NP40-soluble protein abundance: 1.96 ± 0.15
PINX1; concentration: 6mM
  NP40-soluble protein abundance: 2.01 ± 0.21
PINX1; concentration: 8mM
  NP40-soluble protein abundance: 2.36 ± 0.13
PINX1; concentration: 10mM
  NP40-soluble protein abundance: 2.62 ± 0.26
[1]; concentration: 0.1mM
  NP40-soluble protein abundance: 1 ± 0.026
[1]; concentration: 0.5mM
  NP40-soluble protein abundance: 1.05 ± 0.048
[1]; concentration: 1mM
  NP40-soluble protein abundance: 1.01 ± 0.013
[1]; concentration: 2mM
  NP40-soluble protein abundance: 1.06 ± 0.086
[1]; concentration: 4mM
  NP40-soluble protein abundance: 1.11 ± 0.069
[1]; concentration: 6mM
  NP40-soluble protein abundance: 1.11 ± 0.074
[1]; concentration: 8mM
  NP40-soluble protein abundance: 1.07 ± 0.099
[1]; concentration: 10mM
  NP40-soluble protein abundance: 1.03 ± 0.046
RBM17; concentration: 0.1mM
  NP40-soluble protein abundance: 1.02 ± 0.051
RBM17; concentration: 0.5mM
  NP40-soluble protein abundance: 1.1 ± 0.046
RBM17; concentration: 1mM
  NP40-soluble protein abundance: 1.1 ± 0.066
RBM17; concentration: 2mM
  NP40-soluble protein abundance: 1.16 ± 0.097
RBM17; concentration: 4mM
  NP40-soluble protein abundance: 1.19 ± 0.12
RBM17; concentration: 6mM
  NP40-soluble protein abundance: 1.3 ± 0.14
RBM17; concentration: 8mM
  NP40-soluble protein abundance: 1.31 ± 0.18
RBM17; concentration: 10mM
  NP40-soluble protein abundance: 1.34 ± 0.23
RNF25; concentration: 0.1mM
  NP40-soluble protein abundance: 1.101 ± 0.0024
RNF25; concentration: 0.5mM
  NP40-soluble protein abundance: 1.1 ± 0.085
